Data taken from patent US9663789B2, “PME-1 as a biomarker to predict and diagnose endometrial and breast cancer and gene silencing of PME-1 to inhibit epithelial to mesenchymal transition” (MEDICAL DIAGNOSTIC LABORATORIES, LLC, priority 2013, dated 2017).
At least one compound was matched to its structure with a doubt left.

Test system: Akt
Assay: Western analysis of phospho-Akt in RL95-2 cells
Assay type: cell-based, human
Conditions: RL95-2 cells incubated with inhibitor, 50 μM, 1-2 hours
Method: We observed a similar trend for the Akt signaling pathway. There was an increase in phosphorylation of Akt on threonine 308 (T308) when PME-1 was over-expressed compared to control. […] PME-1 over-expression specifically increases the phosphorylation of Akt on T308, but not serine 473 (S473).
15 μg of protein was used for western analysis. PME-1 antibody (Santa Cruz) and COXIV (Cell Signaling Technologies) were used for detection of proteins and the blots were developed using chemiluminescence (Pierce ECL Western Blotting Substrate—Thermo Scientific) on the GE ImageQuant LAS 4000. For analysis of Akt, ERK, and β-catenin signaling in tissue culture, western analyses were completed as follows. RL95-2 cells stably infected with lentivirus expressing constructs were selected with puromycin (Invivogen). The cells were incubated with either 50 μM Akt inhibitor (LY 294002, Cell Signaling Technologies) or 40 μM ERK inhibitor (V0126, Cell Signaling Technologies) for 1-2 hours at 37° C. 1.5× Laemelli buffer (0.5 M Tris pH6.8, […], 10% sodium dodecyl sulfate, 100 mM EDTA) was used to prepare cell lysates. 20 μg of protein was used for western analysis. […]

O=c1cc(N2CCOCC2)oc2c(-c3ccccc3)cccc12 [LY294002, reference compound]
phospho-forms of Akt (Western): decrease in the phospho-forms
